Results on three compounds are retold here after patent publication US10633332B2, “Guanidine compounds for removal of oxyanions from aqueous solutions and for carbon dioxide capture” (UT-Battelle, LLC, priority 2010, dated 2020).

The nature of data set [1]: Direct air capture of CO2 with glycine and sarcosine (air humidifier). As to conditions: for pH initial / pH final: 1M aqueous potassium salt; for pH initial: CO2 loading; for pH final / Carbamate / Carbonate / Total CO2: after 24 hours CO2 loading; for total CO2 loading: after 24 hours.
Data set [2] can be described thus: Regeneration of amino acid sorbents by boiling under reflux.
Data set [3] can be described thus: Regeneration of the amino acid sorbents with PyBIG. As to conditions: for Carbamate / Carbonate / Total CO2 / pH final: after stirring with PyBIG (0.5 molar equiv) for 24 hours; for pH initial: before stirring with PyBIG (0.5 molar equiv); for cyclic capacity: maximum CO2 loading after absorption minus minimum after regeneration with PyBIG.

For the compound `CNCC(=O)O` [Sarcosine, sarcosine], in data set [1], the pH initial worked out at 12.92, the pH final stood at 9.99, the “total CO2 loading” value is listed as 0.63 mol/mol and the Carbamate turned out to be 0.17 M. In data set [1], the Carbonate was 0.46 M and the “Total CO2” value was 0.63 M. The “time after which the absorption rate levels off” value in data set [1] (1 M aqueous solution) is “about 6 hours”. The “total CO2 concentration” value in data set [2] (after 4 hours of refluxing) worked out at 0.17 M. Also, the “total CO2 concentration” value in data set [2] (after one hour of refluxing) came to 0.32 M. In data set [3], the Carbamate came out at 0.03 M, the Carbonate is reported as 0.29 M, the “Total CO2” value is reported as 0.32 M and the pH final stood at 10.53. For the same compound, in data set [3], the pH initial is 9.99 and the cyclic capacity was 0.31 mol/mol.
Take `N=C(N)N/N=C/c1cccc(/C=N/NC(=N)N)n1` [PyBIG]: the cyclic capacity in data set [3] is reported as 0.3-0.35 mol/mol.
As for `NCC(=O)O` [Glycine, glycine], in data set [1], the pH initial came out at 12.31, the pH final is given as 9.52, the “total CO2 loading” value turned out to be 0.73 mol/mol and the Carbamate is listed as 0.27 M. In addition, in data set [1], the Carbonate worked out at 0.46 M and the “Total CO2” value was determined as 0.73 M. For the same compound, the “total CO2 concentration” value in data set [2] (after 4 hours of refluxing) is 0.26 M. In addition, the “total CO2 concentration” value in data set [2] (after one hour of refluxing) is on record as 0.42 M. Further, in data set [3], the Carbamate was 0.05 M, the Carbonate is 0.33 M, the “Total CO2” value is reported as 0.38 M and the pH final is on record as 10.33. In data set [3], the pH initial was 9.63 and the cyclic capacity is given as 0.35 mol/mol.
